Experimental data as given in patent publication US20210363254A1, “PHARMACEUTICAL COMBINATIONS” (Novartis AG, priority 2018, published 2021).
No constants are given. Whether binding was seen depends on the method and setting. Some results given as binding are weak or reduced against the parent protein; the word gives no strength.

Protein sequences, listed by entry. Tags and fused reporters are not part of them. Residues count along the entry.
UniProt Q15116, residues 25-288: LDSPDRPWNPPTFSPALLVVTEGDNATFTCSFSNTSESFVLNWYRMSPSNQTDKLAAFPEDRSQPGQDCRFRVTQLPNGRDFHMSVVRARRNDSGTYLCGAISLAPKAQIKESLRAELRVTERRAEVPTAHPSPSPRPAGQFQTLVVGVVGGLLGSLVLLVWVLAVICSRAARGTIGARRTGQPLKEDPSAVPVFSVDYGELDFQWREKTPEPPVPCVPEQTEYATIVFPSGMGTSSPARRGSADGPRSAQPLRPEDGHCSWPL

Tests used:
[1] = molecular target: Programmed Death 1 (PD-1) (UniProt Q15116); experiment: FACS competition on PD-1-expressing 300.19 cells; constant Alexa 488-labeled murine mAb BAP049, serial dilutions of test mAb; x axis is the ratio conc. test mAb / conc. labelled murine mAb; Experiment 2
[2] = molecular target: Programmed Death 1 (PD-1) (UniProt Q15116); experiment: FACS binding at 200, 100, 50, 25 and 12.5 ng/ml; legend paragraph 49 names neither cells nor antigen; PD-1 taken as target because the clones are the filing's anti-PD-1 antibodies
[3] = molecular target: Programmed Death 1 (PD-1) (UniProt Q15116); experiment: FACS, blocking of ligand-Ig binding to PD-1, MFI of bound ligand against mAb concentration; legend paragraph 53 names 'PD-LI-Ig and PD-L2-Ig' for FIG. 8A; cells not named
[4] = molecular target: Programmed Death 1 (PD-1) (UniProt Q15116); experiment: FACS, blocking of PD-L2-Ig binding to PD-1, MFI of bound ligand against mAb concentration; cells not named
[5] = molecular target: Programmed Death 1 (PD-1) (UniProt Q15116); experiment: FACS competition: fluorescently labeled murine anti-PD-1 mAb BAP049 competed by unlabeled mAb, MFI against mAb concentration; second of two experiments; cells not named in legend paragraph 48
[6] = molecular target: Programmed Death 1 (PD-1) (UniProt Q15116); experiment: FACS competition: fluorescently labeled murine anti-PD-1 mAb BAP049 competed by unlabeled mAb, MFI against mAb concentration; first of two experiments; cells not named in legend paragraph 48

Measured: binding

B1: BAP049-hum04 (antibody, human IgG4 S228P, kappa, V domains shown)
VH: EVQLVQSGAEVKKPGESLRISCKGSGYTFTTYWMHWIRQSPSRGLEWLGNIYPGTGGSNFDEKFKNRFTISRDNSKNTLYLQMNSLRAEDTAVYYCTRWTTGTGAYWGQGTTVTVSS
VL: EIVLTQSPATLSLSPGERATLSCKSSQSLLDSGNQKNFLTWYQQKPGKAPKLLIYWASTRESGVPSRFSGSGSGTDFTFTISSLQPEDIATYYCQNDYSYPYTFGQGTKVEIKR
binds: [1] | [2]

B2: BAP049-hum16 (antibody, human IgG4 S228P, kappa, V domains shown)
VH: EVQLVQSGAEVKKPGESLRISCKGSGYTFTTYWMHWVRQAPGQGLEWMGNIYPGTGGSNFDEKFKNRFTISRDNSKNTLYLQMNSLRAEDTAVYYCTRWTTGTGAYWGQGTTVTVSS
VL: EIVLTQSPDFQSVTPKEKVTITCKSSQSLLDSGNQKNFLTWYQQKPGQAPRLLIYWASTRESGVPSRFSGSGSGTDFTFTISSLEAEDAATYYCQNDYSYPYTFGQGTKVEIKR
binds: [1] | [2]

B3: BAP049-hum02 (antibody, human IgG4 S228P, kappa, V domains shown)
VH: EVQLVQSGAEVKKPGESLRISCKGSGYTFTTYWMHWVRQATGQGLEWMGNIYPGTGGSNFDEKFKNRVTITADKSTSTAYMELSSLRSEDTAVYYCTRWTTGTGAYWGQGTTVTVSS
VL: DIQMTQSPSSLSASVGDRVTITCKSSQSLLDSGNQKNFLTWYQQKPGQAPRLLIYWASTRESGIPPRFSGSGYGTDFTLTINNIESEDAAYYFCQNDYSYPYTFGQGTKVEIKR
binds: [1] | [2]

B4: BAP049-hum05 (antibody, human IgG4 S228P, kappa, V domains shown)
VH: EVQLVQSGAEVKKPGESLRISCKGSGYTFTTYWMHWVRQATGQGLEWMGNIYPGTGGSNFDEKFKNRVTITADKSTSTAYMELSSLRSEDTAVYYCTRWTTGTGAYWGQGTTVTVSS
VL: EIVLTQSPATLSLSPGERATLSCKSSQSLLDSGNQKNFLTWYQQKPGKAPKLLIYWASTRESGVPSRFSGSGSGTDFTFTISSLQPEDIATYYCQNDYSYPYTFGQGTKVEIKR
binds: [1] | [2] | [3] | [4]

B5: BAP049-hum01 (antibody, human IgG4 S228P, kappa, V domains shown)
VH: EVQLVQSGAEVKKPGESLRISCKGSGYTFTTYWMHWVRQATGQGLEWMGNIYPGTGGSNFDEKFKNRVTITADKSTSTAYMELSSLRSEDTAVYYCTRWTTGTGAYWGQGTTVTVSS
VL: EIVLTQSPATLSLSPGERATLSCKSSQSLLDSGNQKNFLTWYQQKPGQAPRLLIYWASTRESGVPSRFSGSGSGTEFTLTISSLQPDDFATYYCQNDYSYPYTFGQGTKVEIKR
binds: [1] | [2] | [3] | [4]

B6: BAP049-hum12 (antibody, human IgG4 S228P, kappa, V domains shown)
VH: EVQLVQSGAEVKKPGESLRISCKGSGYTFTTYWMHWVRQATGQGLEWMGNIYPGTGGSNFDEKFKNRVTITADKSTSTAYMELSSLRSEDTAVYYCTRWTTGTGAYWGQGTTVTVSS
VL: DIQMTQSPSSLSASVGDRVTITCKSSQSLLDSGNQKNFLTWYLQKPGQSPQLLIYWASTRESGVPSRFSGSGSGTDFTFTISSLEAEDAATYYCQNDYSYPYTFGQGTKVEIKR
binds: [1] | [2]

B7: BAP049-hum03 (antibody, human IgG4 S228P, kappa, V domains shown)
VH: EVQLVQSGAEVKKPGESLRISCKGSGYTFTTYWMHWIRQSPSRGLEWLGNIYPGTGGSNFDEKFKNRFTISRDNSKNTLYLQMNSLRAEDTAVYYCTRWTTGTGAYWGQGTTVTVSS
VL: DIQMTQSPSSLSASVGDRVTITCKSSQSLLDSGNQKNFLTWYQQKPGQAPRLLIYWASTRESGIPPRFSGSGYGTDFTLTINNIESEDAAYYFCQNDYSYPYTFGQGTKVEIKR
binds: [1] | [2]

B8: Mu mAb (antibody, V domains shown)
VH: QVQLQQSGSELVRPGASVKLSCKASGYTFTTYWMHWVRQRPGQGLEWIGNIYPGTGGSNFDEKFKNRTSLTVDTSSTTAYMHLASLTSEDSAVYYCTRWTTGTGAYWGQGTLVTVSA
VL: DIVMTQSPSSLTVTAGEKVTMSCKSSQSLLDSGNQKNFLTWYQQKPGQPPKLLIFWASTRESGVPDRFTGSGSVTDFTLTISSVQAEDLAVYYCQNDYSYPCTFGGGTKLEIK
binds: [5] | [1] | [6] | [3] | [4]

B9: Chi mAb (Tyr) (antibody, human IgG4 S228P, kappa, V domains shown)
VH: QVQLQQSGSELVRPGASVKLSCKASGYTFTTYWMHWVRQRPGQGLEWIGNIYPGTGGSNFDEKFKNRTSLTVDTSSTTAYMHLASLTSEDSAVYYCTRWTTGTGAYWGQGTTVTVSS
VL: DIVMTQSPSSLTVTAGEKVTMSCKSSQSLLDSGNQKNFLTWYQQKPGQPPKLLIFWASTRESGVPDRFTGSGSVTDFTLTISSVQAEDLAVYYCQNDYSYPYTFGQGTKVEIKR
binds: [5] | [1] | [6] | [3] | [4]

B10: Chi mAb (Cys) (antibody, human IgG4 S228P, kappa, V domains shown)
VH: QVQLQQSGSELVRPGASVKLSCKASGYTFTTYWMHWVRQRPGQGLEWIGNIYPGTGGSNFDEKFKNRTSLTVDTSSTTAYMHLASLTSEDSAVYYCTRWTTGTGAYWGQGTTVTVSS
VL: DIVMTQSPSSLTVTAGEKVTMSCKSSQSLLDSGNQKNFLTWYQQKPGQPPKLLIFWASTRESGVPDRFTGSGSVTDFTLTISSVQAEDLAVYYCQNDYSYPCTFGQGTKVEIKR
binds: [5] | [6]
